Reference: publication PMC7378325
No constants are given. Whether binding was seen depends on the method and setting. Binding seen in cells or lysates may run through a third protein. Some binding calls cover weakened binding; strength is not graded here. Where a sequence is shown, tags or fusion partners need not be part of it. Blank lines part the entries; values can stand above or below the molecule they belong to.

By UniProt entry, the sequences of proteins in these tests, tags left out. Residues count along the entry.
UniProt Q9Z0U4, residues 20-960: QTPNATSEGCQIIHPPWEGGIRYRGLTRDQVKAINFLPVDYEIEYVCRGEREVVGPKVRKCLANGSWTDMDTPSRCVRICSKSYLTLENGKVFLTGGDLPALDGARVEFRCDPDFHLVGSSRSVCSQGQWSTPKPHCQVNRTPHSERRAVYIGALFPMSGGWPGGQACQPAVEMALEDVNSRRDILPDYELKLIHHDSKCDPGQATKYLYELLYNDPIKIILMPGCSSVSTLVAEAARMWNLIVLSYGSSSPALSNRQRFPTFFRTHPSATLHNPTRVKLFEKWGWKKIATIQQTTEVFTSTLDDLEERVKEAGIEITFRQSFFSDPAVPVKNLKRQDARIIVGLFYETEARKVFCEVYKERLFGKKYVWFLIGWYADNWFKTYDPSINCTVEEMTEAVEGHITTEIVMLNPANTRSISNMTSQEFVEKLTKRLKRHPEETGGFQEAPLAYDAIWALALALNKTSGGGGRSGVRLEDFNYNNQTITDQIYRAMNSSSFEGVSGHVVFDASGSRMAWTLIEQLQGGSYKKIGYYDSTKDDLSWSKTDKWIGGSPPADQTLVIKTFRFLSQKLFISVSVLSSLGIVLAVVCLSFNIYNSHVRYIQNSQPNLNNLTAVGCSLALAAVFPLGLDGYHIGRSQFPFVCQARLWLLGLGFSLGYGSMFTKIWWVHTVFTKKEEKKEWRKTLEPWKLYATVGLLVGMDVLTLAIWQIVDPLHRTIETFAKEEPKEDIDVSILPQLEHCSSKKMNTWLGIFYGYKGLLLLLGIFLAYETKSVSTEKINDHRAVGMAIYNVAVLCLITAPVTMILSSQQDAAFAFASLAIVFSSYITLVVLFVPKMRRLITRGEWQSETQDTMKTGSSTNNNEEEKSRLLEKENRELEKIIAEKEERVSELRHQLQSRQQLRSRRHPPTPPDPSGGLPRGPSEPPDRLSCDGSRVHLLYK

How the values were obtained:
Fibulin-2-Flag = molecular target: T1, Fibulin-2-Flag (UniProt P37889); test: co-IP; COS-7 cells triple transfected with myc-GABAB1a or myc-GABAB1b, HA-GABAB2 and fibulin-2-Flag; extract in PBS with 1% CHAPS, 25 mM Hepes, 150 mM NaCl, pH 7.4; IP with anti-myc or anti-flag, Western blot
T1 sequence: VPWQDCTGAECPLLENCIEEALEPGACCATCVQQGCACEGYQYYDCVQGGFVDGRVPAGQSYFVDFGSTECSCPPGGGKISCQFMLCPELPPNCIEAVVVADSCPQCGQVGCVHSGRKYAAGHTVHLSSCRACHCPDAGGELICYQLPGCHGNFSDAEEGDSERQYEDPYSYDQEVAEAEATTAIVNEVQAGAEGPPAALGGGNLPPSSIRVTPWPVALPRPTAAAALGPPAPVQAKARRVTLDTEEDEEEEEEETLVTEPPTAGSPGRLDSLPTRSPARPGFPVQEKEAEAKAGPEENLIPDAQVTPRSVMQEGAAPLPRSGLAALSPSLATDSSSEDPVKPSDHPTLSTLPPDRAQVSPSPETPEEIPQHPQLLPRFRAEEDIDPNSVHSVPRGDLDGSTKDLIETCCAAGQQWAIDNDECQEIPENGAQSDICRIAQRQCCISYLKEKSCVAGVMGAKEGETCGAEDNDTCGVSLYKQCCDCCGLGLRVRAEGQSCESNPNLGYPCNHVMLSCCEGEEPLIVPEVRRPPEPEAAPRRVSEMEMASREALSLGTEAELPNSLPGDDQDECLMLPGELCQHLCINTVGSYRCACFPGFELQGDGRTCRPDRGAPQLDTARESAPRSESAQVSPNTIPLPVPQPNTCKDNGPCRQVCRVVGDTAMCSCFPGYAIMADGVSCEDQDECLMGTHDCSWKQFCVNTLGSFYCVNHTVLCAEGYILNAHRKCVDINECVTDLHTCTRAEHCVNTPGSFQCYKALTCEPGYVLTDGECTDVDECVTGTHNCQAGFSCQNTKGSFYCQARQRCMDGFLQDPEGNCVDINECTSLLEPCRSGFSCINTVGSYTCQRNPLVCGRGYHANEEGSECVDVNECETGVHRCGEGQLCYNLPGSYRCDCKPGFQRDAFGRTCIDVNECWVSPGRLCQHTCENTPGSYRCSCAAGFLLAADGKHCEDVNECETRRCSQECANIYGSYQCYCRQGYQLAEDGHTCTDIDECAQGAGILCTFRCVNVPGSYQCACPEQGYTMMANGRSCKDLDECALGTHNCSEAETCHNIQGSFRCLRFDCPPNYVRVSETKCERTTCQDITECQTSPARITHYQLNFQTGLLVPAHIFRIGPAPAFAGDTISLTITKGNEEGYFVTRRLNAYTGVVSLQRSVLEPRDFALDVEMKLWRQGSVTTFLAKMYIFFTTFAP

myc-GABAB1a [1] = molecular target: myc-GABAB1a (UniProt Q9Z0U4); test: co-IP; COS-7 cells transfected with myc-GABAB1a and HA-GABAB2, with or without fibulin-2-Flag; extract in PBS with 1% CHAPS, 25 mM Hepes, 150 mM NaCl, pH 7.4; Western blot
myc-GABAB1a [2] = molecular target: myc-GABAB1a (UniProt Q9Z0U4); test: co-IP; COS-7 cells triple transfected with myc-GABAB1a or myc-GABAB1b, HA-GABAB2 and fibulin-2-Flag; extract in PBS with 1% CHAPS, 25 mM Hepes, 150 mM NaCl, pH 7.4; IP with anti-myc or anti-flag, Western blot
myc-GABAB1a [3] = molecular target: myc-GABAB1a (UniProt Q9Z0U4); test: co-IP; COS-7 cells double transfected with myc-GABAB1a and fibulin-2-Flag, without the GABAB2-expressing plasmid; extract in PBS with 1% CHAPS, 25 mM Hepes, 150 mM NaCl, pH 7.4; Western blot

- binding (Fibulin-2-Flag): binds
Molecule: myc-GABAB1a (from UniProt Q9Z0U4 20-960) (receptor)

B1: HA-GABAB2 (receptor, UniProt O88871 41-940)
chain: WTRGAPRPPPSSPPLSIMGLMPLTKEVAKGSIGRGVLPAVELAIEQIRNESLLRPYFLDLRLYDTECDNAKGLKAFYDAIKYGPNHLMVFGGVCPSVTSIIAESLQGWNLVQLSFAATTPVLADKKKYPYFFRTVPSDNAVNPAILKLLKHFRWRRVGTLTQDVQRFSEVRNDLTGVLYGEDIEISDTESFSNDPCTSVKKLKGNDVRIILGQFDQNMAAKVFCCAFEESMFGSKYQWIIPGWYEPAWWEQVHVEANSSRCLRRSLLAAMEGYIGVDFEPLSSKQIKTISGKTPQQFEREYNSKRSGVGPSKFHGYAYDGIWVIAKTLQRAMETLHASSRHQRIQDFNYTDHTLGKIILNAMNETNFFGVTGQVVFRNGERMGTIKFTQFQDSREVKVGEYNAVADTLEIINDTIRFQGSEPPKDKTIILEQLRKISLPLYSILSALTILGMIMASAFLFFNIKNRNQKLIKMSSPYMNNLIILGGMLSYASIFLFGLDGSFVSEKTFETLCTVRTWILTVGYTTAFGAMFAKTWRVHAIFKNVKMKKKIIKDQKLLVIVGGMLLIDLCILICWQAVDPLRRTVERYSMEPDPAGRDISIRPLLEHCENTHMTIWLGIVYAYKGLLMLFGCFLAWETRNVSIPALNDSKYIGMSVYNVGIMCIIGAAVSFLTRDQPNVQFCIVALVIIFCSTITLCLVFVPKLITLRTNPDAATQNRRFQFTQNQKKEDSKTSTSVTSVNQASTSRLEGLQSENHRLRMKITELDKDLEEVTMQLQDTPEKTTYIKQNHYQELNDILSLGNFTESTDGGKAILKNHLDQNPQLQWNTTEPSRTCKDPIEDINSPEHIQRRLSLQLPILHHAYLPSIGGVDASCVSPCVSPTASPRHRHVPPSFRVMVSGL
- binding (myc-GABAB1a [1]): binds

- binding (myc-GABAB1a [2]): binds
- binding (myc-GABAB1a [3]): binds
B2: Fibulin-2-Flag (protein, UniProt P37889 27-1221)
chain: T1 sequence
